# Source: the supplement of paper PMC8728848
# The list shows a part of the results.
# Tests used:
# Assay in all cases: glycan array binding signal (z-score within array); higher = stronger binding
# Settings in all cases: glycan notation: IUPAC condensed, linker removed; mutation: D21K
# [1] = molecular target: Neu5Ac(a2-6)Gal(b1-4)GlcNAc(b1-3)Gal(b1-4)GlcNAc(b1-3)GalNAc
# Procedure, shortened: (§1)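 The Consortium for Functional Glycomics database supplied 3228 glycan arrays, of which those lacking an available protein sequence were dropped. The binding signal, a within-array Z-score, was averaged across arrays of the same protein sequence and across linkers. Negative scores can be read as non-binding.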
# [2] = molecular target: Neu5Ac(a2-6)Gal(b1-4)GlcNAc(b1-3)Gal(b1-4)GlcNAc(b1-3)[Neu5Ac(a2-6)Gal(b1-4)GlcNAc(b1-3)Gal(b1-4)GlcNAc(b1-6)]GalNAc
# Procedure, shortened: as §1
# [3] = molecular target: Neu5Ac(a2-6)Gal(b1-4)GlcNAc(b1-3)Gal(b1-4)GlcNAc(b1-6)[Gal(b1-3)]GalNAc
# Procedure, shortened: as §1
# [4] = molecular target: Neu5Ac(a2-6)Gal(b1-4)GlcNAc(b1-3)Gal(b1-4)[Fuc(a1-3)]GlcNAc(b1-3)Gal(b1-4)[Fuc(a1-3)]GlcNAc
# Procedure, shortened: as §1
# [5] = molecular target: Neu5Ac(a2-6)Gal(b1-4)GlcNAc(b1-3)GalNAc
# Procedure, shortened: as §1
# [6] = molecular target: Neu5Ac(a2-6)Gal(b1-4)GlcNAc(b1-3)[Neu5Ac(a2-6)Gal(b1-4)GlcNAc(b1-6)]GalNAc
# Procedure, shortened: as §1
# [7] = molecular target: Neu5Ac(a2-6)Gal(b1-4)GlcNAc(b1-6)GalNAc
# Procedure, shortened: as §1
# [8] = molecular target: Neu5Ac(a2-6)Gal(b1-4)GlcNAc(b1-6)[Gal(b1-3)GlcNAc(b1-3)]Gal(b1-4)Glc
# Procedure, shortened: as §1
# [9] = molecular target: Neu5Ac(a2-6)Gal(b1-4)GlcNAc(b1-6)[Gal(b1-3)]GalNAc
# Procedure, shortened: as §1
# [10] = molecular target: Neu5Ac(a2-6)Gal(b1-4)GlcNAc6S
# Procedure, shortened: as §1
# Neu5Ac(a2-6)GalNAc = molecular target: Neu5Ac(a2-6)GalNAc
# Procedure, shortened: as §1
# [11] = molecular target: Neu5Ac(a2-6)GalNAc(b1-4)GlcNAc
# Procedure, shortened: as §1
# [12] = molecular target: Neu5Ac(a2-6)GalNAc(b1-4)GlcNAc6S
# Procedure, shortened: as §1
# [13] = molecular target: Neu5Ac(a2-6)GlcNAc(b1-4)GlcNAc
# Procedure, shortened: as §1
# [14] = molecular target: Neu5Ac(a2-6)GlcNAc(b1-4)GlcNAc(b1-4)GlcNAc
# Procedure, shortened: as §1
# Neu5Ac(a2-8)Neu5Ac = molecular target: Neu5Ac(a2-8)Neu5Ac
# Procedure, shortened: as §1
# [15] = molecular target: Neu5Ac(a2-8)Neu5Ac(a2-3)Gal(b1-3)GalNAc(b1-4)[Neu5Ac(a2-3)]Gal(b1-4)Glc
# Procedure, shortened: as §1
# [16] = molecular target: Neu5Ac(a2-8)Neu5Ac(a2-3)Gal(b1-3)GalNAc(b1-4)[Neu5Ac(a2-8)Neu5Ac(a2-3)]Gal(b1-4)Glc
# Procedure, shortened: as §1
# [17] = molecular target: Neu5Ac(a2-8)Neu5Ac(a2-3)Gal(b1-4)Glc
# Procedure, shortened: as §1
# [18] = molecular target: Neu5Ac(a2-8)Neu5Ac(a2-3)Gal(b1-4)GlcNAc
# Procedure, shortened: as §1
# [19] = molecular target: Neu5Ac(a2-8)Neu5Ac(a2-3)[Gal(b1-3)GalNAc(b1-4)]Gal(b1-4)Glc
# Procedure, shortened: as §1
# [20] = molecular target: Neu5Ac(a2-8)Neu5Ac(a2-3)[GalNAc(b1-4)]Gal(b1-4)Glc
# Procedure, shortened: as §1
# [21] = molecular target: Neu5Ac(a2-8)Neu5Ac(a2-8)Neu5Ac
# Procedure, shortened: as §1
# [22] = molecular target: Neu5Ac(a2-8)Neu5Ac(a2-8)Neu5Ac(a2-3)Gal(b1-4)Glc
# Procedure, shortened: as §1
# [23] = molecular target: Neu5Ac(a2-8)Neu5Ac(a2-8)Neu5Ac(a2-3)[Gal(b1-3)GalNAc(b1-4)]Gal(b1-4)Glc
# Procedure, shortened: as §1
# [24] = molecular target: Neu5Ac(a2-8)Neu5Ac(a2-8)Neu5Ac(a2-3)[GalNAc(b1-4)]Gal(b1-4)Glc
# Procedure, shortened: as §1
# [25] = molecular target: Neu5Ac(a2-8)Neu5Ac(a2-8)Neu5Ac(a2-8)Neu5Ac(a2-3)[GalNAc(b1-4)]Gal(b1-4)Glc
# Procedure, shortened: as §1
# [26] = molecular target: Neu5Ac(a2-8)Neu5Gc(a2-3)Gal(b1-4)GlcNAc
# Procedure, shortened: as §1
# [27] = molecular target: Neu5Ac(b2-6)Gal(b1-4)GlcNAc
# Procedure, shortened: as §1
# Neu5Ac(b2-6)GalNAc = molecular target: Neu5Ac(b2-6)GalNAc
# Procedure, shortened: as §1
# [28] = molecular target: Neu5Ac9Ac(a2-3)Gal(b1-3)GlcNAc
# Procedure, shortened: as §1
# [29] = molecular target: Neu5Ac9Ac(a2-3)Gal(b1-4)GlcNAc
# Procedure, shortened: as §1
# [30] = molecular target: Neu5Ac9Ac(a2-6)Gal(b1-4)GlcNAc
# Procedure, shortened: as §1
# [31] = molecular target: Neu5Gc(a2-3)Gal(b1-3)GlcNAc
# Procedure, shortened: as §1
# [32] = molecular target: Neu5Gc(a2-3)Gal(b1-3)[Fuc(a1-4)]GlcNAc
# Procedure, shortened: as §1
# Neu5Gc(a2-3)Gal(b1-4)Glc = molecular target: Neu5Gc(a2-3)Gal(b1-4)Glc
# Procedure, shortened: as §1
# [33] = molecular target: Neu5Gc(a2-3)Gal(b1-4)GlcNAc
# Procedure, shortened: as §1
# [34] = molecular target: Neu5Gc(a2-3)Gal(b1-4)GlcNAc(b1-3)Gal(b1-4)GlcNAc(b1-2)Man(a1-3)[Neu5Gc(a2-3)Gal(b1-4)GlcNAc(b1-3)Gal(b1-4)GlcNAc(b1-2)Man(a1-6)]Man(b1-4)GlcNAc(b1-4)GlcNAc
# Procedure, shortened: as §1
# [35] = molecular target: Neu5Gc(a2-3)Gal(b1-4)[Fuc(a1-3)]GlcNAc
# Procedure, shortened: as §1
# [36] = molecular target: Neu5Gc(a2-6)Gal(b1-4)GlcNAc
# Procedure, shortened: as §1
# Neu5Gc(a2-6)GalNAc = molecular target: Neu5Gc(a2-6)GalNAc
# Procedure, shortened: as §1
# [37] = molecular target: Neu5Gc(a2-8)Neu5Ac(a2-3)Gal(b1-4)GlcNAc
# Procedure, shortened: as §1
# [38] = molecular target: Neu5Gc(a2-8)Neu5Gc(a2-3)Gal(b1-4)GlcNAc
# Procedure, shortened: as §1
# [39] = molecular target: Neu5Gc(a2-8)Neu5Gc(a2-3)Gal(b1-4)GlcNAc(b1-3)Gal(b1-4)GlcNAc
# Procedure, shortened: as §1
# [40] = molecular target: Neu5Gc(a2-8)Neu5Gc(a2-6)Gal(b1-4)GlcNAc
# Procedure, shortened: as §1
# [41] = molecular target: Neu5Gc(b2-6)Gal(b1-4)GlcNAc
# Procedure, shortened: as §1
binder,measurement,setting,value
KILRGVCKKIMRTFLRRISKKILTGKK [C7A (Sus scrofa)],glycan array binding signal (z-score),[1],0.528
same,glycan array binding signal (z-score),[2],1.8
same,glycan array binding signal (z-score),[3],0.269
same,glycan array binding signal (z-score),[4],-0.054
same,glycan array binding signal (z-score),[5],1.32
same,glycan array binding signal (z-score),[6],1.39
same,glycan array binding signal (z-score),[7],1.56
same,glycan array binding signal (z-score),[8],-0.436
same,glycan array binding signal (z-score),[9],-1.2
same,glycan array binding signal (z-score),[10],0.4
same,glycan array binding signal (z-score),Neu5Ac(a2-6)GalNAc,-1.98
same,glycan array binding signal (z-score),[11],-1.34
same,glycan array binding signal (z-score),[12],-0.017
same,glycan array binding signal (z-score),[13],-0.555
same,glycan array binding signal (z-score),[14],-1.44
same,glycan array binding signal (z-score),Neu5Ac(a2-8)Neu5Ac,-0.467
same,glycan array binding signal (z-score),[15],0.813
same,glycan array binding signal (z-score),[16],-0.48
same,glycan array binding signal (z-score),[17],-0.811
same,glycan array binding signal (z-score),[18],-1.16
same,glycan array binding signal (z-score),[19],-1.49
same,glycan array binding signal (z-score),[20],0.169
same,glycan array binding signal (z-score),[21],-0.334
same,glycan array binding signal (z-score),[22],-0.534
same,glycan array binding signal (z-score),[23],-0.693
same,glycan array binding signal (z-score),[24],0.151
same,glycan array binding signal (z-score),[25],0.219
same,glycan array binding signal (z-score),[26],-1.09
same,glycan array binding signal (z-score),[27],-0.121
same,glycan array binding signal (z-score),Neu5Ac(b2-6)GalNAc,-0.603
same,glycan array binding signal (z-score),[28],0.779
same,glycan array binding signal (z-score),[29],0.878
same,glycan array binding signal (z-score),[30],0.922
same,glycan array binding signal (z-score),[31],-0.028
same,glycan array binding signal (z-score),[32],-0.488
same,glycan array binding signal (z-score),Neu5Gc(a2-3)Gal(b1-4)Glc,-0.291
same,glycan array binding signal (z-score),[33],0.298
same,glycan array binding signal (z-score),[34],0.755
same,glycan array binding signal (z-score),[35],-0.7
same,glycan array binding signal (z-score),[36],-1.01
same,glycan array binding signal (z-score),Neu5Gc(a2-6)GalNAc,-0.346
same,glycan array binding signal (z-score),[37],-1.99
same,glycan array binding signal (z-score),[38],-1.02
same,glycan array binding signal (z-score),[39],-0.229
same,glycan array binding signal (z-score),[40],-3.08
same,glycan array binding signal (z-score),[41],0.66

# A second format for part of the listing above:
binder	measurement	setting	value
KILRGVCKKIMRTFLRRISKKILTGKK [C7A (Sus scrofa)]	glycan array binding signal (z-score)	[19]	-1.49
same	glycan array binding signal (z-score)	[20]	0.169
same	glycan array binding signal (z-score)	[21]	-0.334
same	glycan array binding signal (z-score)	[22]	-0.534
same	glycan array binding signal (z-score)	[23]	-0.693
same	glycan array binding signal (z-score)	[24]	0.151
same	glycan array binding signal (z-score)	[25]	0.219
same	glycan array binding signal (z-score)	[26]	-1.09
same	glycan array binding signal (z-score)	[27]	-0.121
same	glycan array binding signal (z-score)	Neu5Ac(b2-6)GalNAc	-0.603
same	glycan array binding signal (z-score)	[28]	0.779
same	glycan array binding signal (z-score)	[29]	0.878
same	glycan array binding signal (z-score)	[30]	0.922
